Data on 15 targets can be found in the supplement of paper PMC6411743.

Amino acid sequences for entries named in this document (tags omitted). A change or cut given only in a name is not applied to a line headed by its entry.
UniProt Q9NYP9: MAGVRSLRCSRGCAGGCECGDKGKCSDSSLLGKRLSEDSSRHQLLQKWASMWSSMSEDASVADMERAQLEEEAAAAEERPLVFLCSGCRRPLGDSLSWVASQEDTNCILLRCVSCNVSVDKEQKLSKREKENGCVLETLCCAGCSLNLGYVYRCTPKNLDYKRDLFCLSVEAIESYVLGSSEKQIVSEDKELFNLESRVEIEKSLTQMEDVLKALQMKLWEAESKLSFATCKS
UniProt Q9NY27: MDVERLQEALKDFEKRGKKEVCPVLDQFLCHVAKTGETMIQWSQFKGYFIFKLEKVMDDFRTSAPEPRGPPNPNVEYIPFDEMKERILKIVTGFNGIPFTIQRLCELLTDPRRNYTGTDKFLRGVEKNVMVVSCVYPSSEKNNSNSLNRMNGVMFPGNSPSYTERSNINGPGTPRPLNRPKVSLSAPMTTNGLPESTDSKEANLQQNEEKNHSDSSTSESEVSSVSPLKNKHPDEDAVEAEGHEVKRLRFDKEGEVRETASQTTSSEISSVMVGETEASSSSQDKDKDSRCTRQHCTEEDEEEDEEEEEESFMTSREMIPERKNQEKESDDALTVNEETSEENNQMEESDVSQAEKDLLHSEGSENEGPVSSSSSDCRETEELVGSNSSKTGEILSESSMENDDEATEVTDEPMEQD
UniProt Q9P2R6: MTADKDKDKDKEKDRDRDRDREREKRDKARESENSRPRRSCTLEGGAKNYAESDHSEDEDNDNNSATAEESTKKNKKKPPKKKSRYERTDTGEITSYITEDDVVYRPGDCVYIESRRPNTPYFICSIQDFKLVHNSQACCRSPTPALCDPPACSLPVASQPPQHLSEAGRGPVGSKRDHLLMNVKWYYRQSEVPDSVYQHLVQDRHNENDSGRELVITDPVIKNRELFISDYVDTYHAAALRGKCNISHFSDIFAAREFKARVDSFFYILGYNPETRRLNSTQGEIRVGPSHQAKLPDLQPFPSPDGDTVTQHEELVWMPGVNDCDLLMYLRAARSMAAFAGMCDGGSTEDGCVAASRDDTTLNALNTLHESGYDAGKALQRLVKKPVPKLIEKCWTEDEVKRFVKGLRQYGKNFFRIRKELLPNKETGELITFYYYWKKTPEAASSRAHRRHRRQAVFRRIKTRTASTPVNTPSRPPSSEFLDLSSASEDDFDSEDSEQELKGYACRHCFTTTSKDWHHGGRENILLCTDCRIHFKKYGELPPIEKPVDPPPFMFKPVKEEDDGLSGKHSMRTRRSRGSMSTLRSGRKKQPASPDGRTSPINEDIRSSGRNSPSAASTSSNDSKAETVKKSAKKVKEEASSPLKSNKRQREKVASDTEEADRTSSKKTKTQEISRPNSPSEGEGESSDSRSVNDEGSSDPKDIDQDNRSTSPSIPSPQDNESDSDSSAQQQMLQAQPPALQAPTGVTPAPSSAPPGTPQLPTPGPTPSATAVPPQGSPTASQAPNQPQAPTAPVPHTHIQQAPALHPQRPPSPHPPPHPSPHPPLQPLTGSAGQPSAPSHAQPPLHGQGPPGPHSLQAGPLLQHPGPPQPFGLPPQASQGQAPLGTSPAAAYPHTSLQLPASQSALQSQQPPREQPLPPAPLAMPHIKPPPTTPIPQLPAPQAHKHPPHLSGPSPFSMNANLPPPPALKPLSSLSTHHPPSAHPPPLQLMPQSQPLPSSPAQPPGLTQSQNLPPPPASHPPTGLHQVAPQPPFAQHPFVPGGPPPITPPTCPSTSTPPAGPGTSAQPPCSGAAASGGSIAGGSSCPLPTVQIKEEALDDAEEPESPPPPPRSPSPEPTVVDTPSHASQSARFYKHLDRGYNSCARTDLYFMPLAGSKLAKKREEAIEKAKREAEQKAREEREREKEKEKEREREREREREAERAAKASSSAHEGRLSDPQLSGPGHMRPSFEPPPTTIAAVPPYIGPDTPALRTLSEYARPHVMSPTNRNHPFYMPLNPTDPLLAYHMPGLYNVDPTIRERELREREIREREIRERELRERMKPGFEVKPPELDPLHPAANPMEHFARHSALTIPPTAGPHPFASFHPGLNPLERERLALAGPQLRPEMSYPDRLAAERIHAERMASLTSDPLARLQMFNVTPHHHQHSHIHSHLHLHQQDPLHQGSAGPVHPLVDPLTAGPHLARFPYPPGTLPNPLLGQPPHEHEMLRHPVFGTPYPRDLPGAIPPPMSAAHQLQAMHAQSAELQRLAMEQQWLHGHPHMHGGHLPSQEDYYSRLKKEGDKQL
UniProt Q9NUM4, whole entry: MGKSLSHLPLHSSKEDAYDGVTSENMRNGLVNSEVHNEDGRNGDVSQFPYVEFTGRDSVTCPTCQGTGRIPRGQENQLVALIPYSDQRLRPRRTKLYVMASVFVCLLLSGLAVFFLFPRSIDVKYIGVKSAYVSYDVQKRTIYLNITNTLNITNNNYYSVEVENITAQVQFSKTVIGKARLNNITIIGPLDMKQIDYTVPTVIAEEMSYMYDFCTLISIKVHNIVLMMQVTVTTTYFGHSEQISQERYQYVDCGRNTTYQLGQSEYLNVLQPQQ
UniProt Q9NWU1, whole entry: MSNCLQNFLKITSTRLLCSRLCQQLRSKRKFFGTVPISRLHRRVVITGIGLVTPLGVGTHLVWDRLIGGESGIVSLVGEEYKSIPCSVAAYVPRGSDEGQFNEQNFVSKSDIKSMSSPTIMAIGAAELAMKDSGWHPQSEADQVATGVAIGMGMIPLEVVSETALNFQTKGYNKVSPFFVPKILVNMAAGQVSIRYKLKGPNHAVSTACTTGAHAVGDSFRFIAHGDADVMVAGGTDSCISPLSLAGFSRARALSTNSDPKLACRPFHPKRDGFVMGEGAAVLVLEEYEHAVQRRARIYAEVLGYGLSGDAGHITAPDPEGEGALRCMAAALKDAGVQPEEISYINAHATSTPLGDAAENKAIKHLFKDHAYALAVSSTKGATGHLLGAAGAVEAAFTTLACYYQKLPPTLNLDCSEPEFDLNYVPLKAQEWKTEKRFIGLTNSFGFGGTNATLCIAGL
UniProt Q9NZL9, whole entry: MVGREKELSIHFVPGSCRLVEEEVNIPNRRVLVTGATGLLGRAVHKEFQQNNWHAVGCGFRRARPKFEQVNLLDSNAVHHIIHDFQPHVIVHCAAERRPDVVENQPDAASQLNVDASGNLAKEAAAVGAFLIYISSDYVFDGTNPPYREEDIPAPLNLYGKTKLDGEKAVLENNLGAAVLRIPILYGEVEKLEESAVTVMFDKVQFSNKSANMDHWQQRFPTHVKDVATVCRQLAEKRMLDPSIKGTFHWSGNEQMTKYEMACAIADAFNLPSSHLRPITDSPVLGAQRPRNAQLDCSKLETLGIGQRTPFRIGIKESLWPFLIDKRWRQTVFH
UniProt Q9NR50: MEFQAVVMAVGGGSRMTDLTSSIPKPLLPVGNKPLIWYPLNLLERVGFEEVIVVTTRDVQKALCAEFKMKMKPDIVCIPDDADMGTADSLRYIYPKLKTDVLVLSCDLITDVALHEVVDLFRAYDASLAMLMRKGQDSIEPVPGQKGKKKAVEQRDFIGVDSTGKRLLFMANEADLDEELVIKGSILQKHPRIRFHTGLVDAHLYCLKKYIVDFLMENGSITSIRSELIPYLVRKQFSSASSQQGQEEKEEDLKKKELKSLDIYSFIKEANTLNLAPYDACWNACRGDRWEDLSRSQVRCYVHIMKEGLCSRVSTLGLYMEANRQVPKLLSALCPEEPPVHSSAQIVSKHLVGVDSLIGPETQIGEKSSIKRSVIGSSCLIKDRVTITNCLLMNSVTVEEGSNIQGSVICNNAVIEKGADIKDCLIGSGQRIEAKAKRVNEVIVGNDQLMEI
UniProt Q9NX74: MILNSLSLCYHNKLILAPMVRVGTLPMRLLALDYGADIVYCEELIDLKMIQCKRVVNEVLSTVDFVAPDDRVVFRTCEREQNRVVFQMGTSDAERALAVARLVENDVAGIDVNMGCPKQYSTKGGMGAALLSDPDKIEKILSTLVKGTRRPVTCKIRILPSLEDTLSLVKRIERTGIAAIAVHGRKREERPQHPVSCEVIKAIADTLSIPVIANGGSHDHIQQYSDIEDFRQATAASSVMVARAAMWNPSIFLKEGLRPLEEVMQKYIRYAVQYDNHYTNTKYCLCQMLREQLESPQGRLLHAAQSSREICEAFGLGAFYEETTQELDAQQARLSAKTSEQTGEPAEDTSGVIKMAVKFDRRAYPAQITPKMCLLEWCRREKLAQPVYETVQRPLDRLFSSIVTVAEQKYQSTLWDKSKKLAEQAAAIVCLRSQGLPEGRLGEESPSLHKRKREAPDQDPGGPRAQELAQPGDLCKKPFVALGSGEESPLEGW
UniProt Q9P2Y5: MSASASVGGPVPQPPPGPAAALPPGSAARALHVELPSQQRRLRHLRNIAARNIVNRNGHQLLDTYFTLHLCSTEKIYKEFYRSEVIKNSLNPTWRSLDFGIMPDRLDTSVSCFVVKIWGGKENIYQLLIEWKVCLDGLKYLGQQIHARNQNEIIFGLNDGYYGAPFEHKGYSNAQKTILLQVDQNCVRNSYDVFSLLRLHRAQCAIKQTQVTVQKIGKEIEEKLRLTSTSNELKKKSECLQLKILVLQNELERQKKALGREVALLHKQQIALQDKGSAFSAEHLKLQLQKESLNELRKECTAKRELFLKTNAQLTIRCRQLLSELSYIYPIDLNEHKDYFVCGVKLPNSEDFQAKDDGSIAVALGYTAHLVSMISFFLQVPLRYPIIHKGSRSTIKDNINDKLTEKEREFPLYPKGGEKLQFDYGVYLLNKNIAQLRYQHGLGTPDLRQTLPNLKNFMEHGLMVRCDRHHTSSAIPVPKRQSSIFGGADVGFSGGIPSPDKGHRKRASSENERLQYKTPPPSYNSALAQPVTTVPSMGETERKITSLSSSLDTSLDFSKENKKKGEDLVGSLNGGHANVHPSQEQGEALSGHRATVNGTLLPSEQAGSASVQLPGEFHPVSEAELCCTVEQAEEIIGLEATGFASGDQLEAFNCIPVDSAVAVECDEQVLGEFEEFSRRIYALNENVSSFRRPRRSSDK
UniProt Q9NW64: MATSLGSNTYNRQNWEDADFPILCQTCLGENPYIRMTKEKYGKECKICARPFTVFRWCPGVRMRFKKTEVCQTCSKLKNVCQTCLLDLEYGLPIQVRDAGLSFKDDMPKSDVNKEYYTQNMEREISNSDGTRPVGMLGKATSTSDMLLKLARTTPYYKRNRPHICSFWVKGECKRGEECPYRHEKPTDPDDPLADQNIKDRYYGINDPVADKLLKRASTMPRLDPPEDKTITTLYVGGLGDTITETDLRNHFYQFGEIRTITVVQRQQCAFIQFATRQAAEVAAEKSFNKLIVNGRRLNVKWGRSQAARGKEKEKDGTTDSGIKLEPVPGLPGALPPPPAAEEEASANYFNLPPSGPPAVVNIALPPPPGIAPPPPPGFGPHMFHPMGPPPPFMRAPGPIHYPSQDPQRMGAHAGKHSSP
UniProt Q9NX08, whole entry: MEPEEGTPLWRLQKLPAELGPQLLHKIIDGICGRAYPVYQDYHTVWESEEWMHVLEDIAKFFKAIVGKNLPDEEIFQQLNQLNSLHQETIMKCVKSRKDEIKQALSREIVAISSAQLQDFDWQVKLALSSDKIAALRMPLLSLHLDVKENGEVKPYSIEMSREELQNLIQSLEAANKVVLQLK
UniProt Q9NVA1: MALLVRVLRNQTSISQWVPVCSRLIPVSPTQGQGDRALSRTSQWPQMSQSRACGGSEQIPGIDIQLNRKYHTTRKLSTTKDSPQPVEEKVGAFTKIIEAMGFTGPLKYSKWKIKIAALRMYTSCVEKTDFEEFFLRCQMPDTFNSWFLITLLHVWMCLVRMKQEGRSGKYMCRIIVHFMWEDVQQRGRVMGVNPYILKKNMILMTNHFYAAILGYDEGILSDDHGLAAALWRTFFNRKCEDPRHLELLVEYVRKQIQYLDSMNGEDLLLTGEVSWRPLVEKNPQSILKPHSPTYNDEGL
UniProt Q9NWZ5: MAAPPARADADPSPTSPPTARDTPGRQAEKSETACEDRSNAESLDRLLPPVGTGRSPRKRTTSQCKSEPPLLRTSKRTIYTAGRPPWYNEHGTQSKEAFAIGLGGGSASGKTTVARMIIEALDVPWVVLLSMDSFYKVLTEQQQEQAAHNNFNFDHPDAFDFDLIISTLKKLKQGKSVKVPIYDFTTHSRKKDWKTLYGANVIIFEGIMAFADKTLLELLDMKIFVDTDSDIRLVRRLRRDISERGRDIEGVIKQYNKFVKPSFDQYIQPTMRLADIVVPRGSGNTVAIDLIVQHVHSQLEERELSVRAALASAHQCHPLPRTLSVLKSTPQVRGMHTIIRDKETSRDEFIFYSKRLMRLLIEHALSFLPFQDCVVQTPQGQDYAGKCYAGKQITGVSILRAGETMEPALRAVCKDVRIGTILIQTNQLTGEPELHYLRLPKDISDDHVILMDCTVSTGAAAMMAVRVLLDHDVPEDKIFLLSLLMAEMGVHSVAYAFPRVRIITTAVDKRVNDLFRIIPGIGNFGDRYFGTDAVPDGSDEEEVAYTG

± gives the standard deviation of the averaged measurements. Only a part is listed here, and it is no random draw.

Compound in the experiment: Nc1ncnc2c1ncn2[C@@H]1O[C@H](COP(=O)(O)OP(=O)(O)NP(=O)(O)O)[C@@H](O)[C@H]1O [adenylyl imidodiphosphate]
Nature of the experiment: NP40-soluble protein abundance relative to vehicle (solubility fold change) (ratio); higher = more soluble protein in presence of AMP-PNP. A digest of the protocol: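 Across three independent experiments, values are fold changes against the detergent-processed vehicle for each replicate, based on vsn-normalised intensities. The samples were Jurkat crude lysate treated with eight concentrations (0.1 to 10 mM) for 10 min at room temperature and then 3 min at 37 °C. Lysate was solubilised with 0.8% NP40 and benzonase, ultracentrifuged, and the supernatant analysed by TMT-labelled LC-MS/MS.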

UniProt Q9NYP9: the NP40-soluble protein abundance was found to be 0.982 ± 0.017 (concentration: 1mM); 0.987 ± 0.018 (concentration: 2mM); 0.944 ± 0.018 (concentration: 4mM); 0.927 ± 0.03 (concentration: 6mM); 0.885 ± 0.019 (concentration: 8mM); 0.8884 ± 0.0083 (concentration: 10mM).
For PPP4R2 (UniProt Q9NY27), the NP40-soluble protein abundance is, setting by setting: (concentration: 1mM) 1.07 ± 0.04; (concentration: 2mM) 1.06 ± 0.027; (concentration: 4mM) 1.08 ± 0.015; (concentration: 6mM) 1.054 ± 0.01; (concentration: 8mM) 1.06 ± 0.019; (concentration: 10mM) 1.07 ± 0.037.
For RERE (UniProt Q9P2R6), the NP40-soluble protein abundance was 1.019 ± 0.0016 (concentration: 1mM); 1.06 ± 0.019 (concentration: 2mM); 1.02 ± 0.019 (concentration: 4mM); 1.02 ± 0.024 (concentration: 6mM); 1.01 ± 0.036 (concentration: 8mM); 1.02 ± 0.038 (concentration: 10mM).
UniProt Q9NUM4 and related entries: the NP40-soluble protein abundance is, setting by setting: (concentration: 1mM) 0.973 ± 0.031; (concentration: 2mM) 0.949 ± 0.032; (concentration: 4mM) 0.992 ± 0.022; (concentration: 6mM) 0.9677 ± 0.0052; (concentration: 8mM) 0.967 ± 0.029; (concentration: 10mM) 0.923 ± 0.04.
Take OXSM (UniProt Q9NWU1): the NP40-soluble protein abundance runs as follows: (concentration: 1mM) 1.019 ± 0.0062; (concentration: 2mM) 0.995 ± 0.011; (concentration: 4mM) 1.01 ± 0.036; (concentration: 6mM) 0.998 ± 0.012; (concentration: 8mM) 1 ± 0.029; (concentration: 10mM) 1.01 ± 0.043.
In the case of UniProt Q9NZL9 and related entries, the NP40-soluble protein abundance came out at 1.05 ± 0.022 (concentration: 1mM); 0.961 ± 0.023 (concentration: 2mM); 0.9806 ± 0.0017 (concentration: 4mM); 0.962 ± 0.02 (concentration: 6mM); 0.972 ± 0.038 (concentration: 8mM); 0.936 ± 0.022 (concentration: 10mM).
In the case of EIF2B3 (UniProt Q9NR50), the NP40-soluble protein abundance runs as follows: (concentration: 1mM) 0.937 ± 0.017; (concentration: 2mM) 0.887 ± 0.095; (concentration: 4mM) 0.938 ± 0.021; (concentration: 6mM) 0.9434 ± 0.0087; (concentration: 8mM) 0.961 ± 0.027; (concentration: 10mM) 0.947 ± 0.046.
In the case of UniProt Q9NX74, the NP40-soluble protein abundance by setting is: (concentration: 1mM) 0.996 ± 0.027; (concentration: 2mM) 0.985 ± 0.03; (concentration: 4mM) 0.986 ± 0.038; (concentration: 6mM) 0.9913 ± 0.0087; (concentration: 8mM) 0.998 ± 0.028; (concentration: 10mM) 1.02 ± 0.018.
Consider UVRAG (UniProt Q9P2Y5), for which the NP40-soluble protein abundance reads like this: (concentration: 1mM) 0.975 ± 0.013; (concentration: 2mM) 0.936 ± 0.046; (concentration: 4mM) 0.984 ± 0.037; (concentration: 6mM) 0.983 ± 0.031; (concentration: 8mM) 1.01 ± 0.043; (concentration: 10mM) 0.97 ± 0.038.
UniProt Q9NW64: the NP40-soluble protein abundance (concentration: 1mM) was 1.1 ± 0.026; the NP40-soluble protein abundance (concentration: 2mM) was 1.11 ± 0.025; the NP40-soluble protein abundance (concentration: 4mM) stood at 1.12 ± 0.032; the NP40-soluble protein abundance (concentration: 6mM) came to 1.14 ± 0.032; the NP40-soluble protein abundance (concentration: 8mM) was 1.18 ± 0.02; the NP40-soluble protein abundance (concentration: 10mM) is 1.18 ± 0.029.
UniProt Q9NQW7-3: the NP40-soluble protein abundance was 1.02 ± 0.026 (concentration: 1mM); 0.944 ± 0.083 (concentration: 2mM); 0.994 ± 0.032 (concentration: 4mM); 0.952 ± 0.02 (concentration: 6mM); 0.978 ± 0.03 (concentration: 8mM); 0.918 ± 0.045 (concentration: 10mM).
For COMMD8 (UniProt Q9NX08), the NP40-soluble protein abundance turned out to be 0.947 ± 0.02 (concentration: 1mM); 0.955 ± 0.05 (concentration: 2mM); 0.964 ± 0.03 (concentration: 4mM); 0.943 ± 0.042 (concentration: 6mM); 0.964 ± 0.03 (concentration: 8mM); 0.892 ± 0.013 (concentration: 10mM).
Regarding UniProt Q9NVA1 and related entries, the NP40-soluble protein abundance stood at 1.01 ± 0.043 (concentration: 1mM); 1 ± 0.047 (concentration: 2mM); 1.02 ± 0.049 (concentration: 4mM); 0.961 ± 0.011 (concentration: 6mM); 0.996 ± 0.014 (concentration: 8mM); 0.995 ± 0.024 (concentration: 10mM).
Turning to UCKL1 (UniProt Q9NWZ5), the NP40-soluble protein abundance turned out to be 1 ± 0.014 (concentration: 1mM); 1 ± 0.035 (concentration: 2mM); 0.996 ± 0.022 (concentration: 4mM); 0.95 ± 0.014 (concentration: 6mM); 0.955 ± 0.0061 (concentration: 8mM); 0.931 ± 0.023 (concentration: 10mM).
As to UniProt Q9NRG9 and related entries, the NP40-soluble protein abundance turned out to be 0.964 ± 0.04 (concentration: 1mM); 0.925 ± 0.053 (concentration: 2mM); 0.948 ± 0.056 (concentration: 4mM); 0.972 ± 0.034 (concentration: 6mM); 0.96 ± 0.051 (concentration: 8mM); 0.958 ± 0.036 (concentration: 10mM).
